From article PMC5902629
No constants are given. Whether binding was seen depends on the method and setting. Binding seen in cells or lysates may run through a third protein. These calls come from enrichment with a bait or labelling near it, and not all partners need be listed. Sequences can lack the tags named with a protein.

Target: T1, eGFP-HadA (HadA subunit of the FAS-II (3R)-hydroxyacyl-ACP dehydratase HadAB, Rv0635) (M. tuberculosis H37Rv) (UniProt P9WFK1)
T1 sequence: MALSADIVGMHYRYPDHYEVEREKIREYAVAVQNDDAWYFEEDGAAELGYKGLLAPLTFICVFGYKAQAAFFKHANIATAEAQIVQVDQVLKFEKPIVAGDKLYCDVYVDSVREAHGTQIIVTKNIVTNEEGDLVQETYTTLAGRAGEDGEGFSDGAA
Test: affinity purification with mass spectrometry

B1: HadD (MSMEG_0948 protein) (protein, UniProt A0QR13 1-177)
chain: MSIAANIIGTHYRYPDYFEVGREKVREFSAAVKDDHPAHFDEAAAKECGHDNLIAPLTFLAVAGRRVQLDLFDKFDVPINLERVLHRDQKLIFHRPIVVGDKLWFDSYLDSVIESHGTVICEIRAEVTDDDGKPVATSIVTMLGEAEIDEADEISSQIAAARDAAIAKMVAGQKSSS
B1 was tested, and the binding was “binds”.

B2: HadB (catalytic subunit of the FAS-II dehydratases HadAB and HadBC, Rv0636) (protein, UniProt I6WYY7 1-142)
chain: MALREFSSVKVGDQLPEKTYPLTRQDLVNYAGVSGDLNPIHWDDEIAKVVGLDTAIAHGMLTMGIGGGYVTSWVGDPGAVTEYNVRFTAVVPVPNDGKGAELVFNGRVKSVDPESKSVTIALTATTGGKKIFGRAIASAKLA
For B2, the binding was “binds”.
